Laboratory results as given in BindingDB's records for doi:10.1124/mol.64.6.1295 (Glaxosmithkline, 2003).

By UniProt entry, the sequences of proteins in these tests, tags left out.
UniProt P50406, whole entry: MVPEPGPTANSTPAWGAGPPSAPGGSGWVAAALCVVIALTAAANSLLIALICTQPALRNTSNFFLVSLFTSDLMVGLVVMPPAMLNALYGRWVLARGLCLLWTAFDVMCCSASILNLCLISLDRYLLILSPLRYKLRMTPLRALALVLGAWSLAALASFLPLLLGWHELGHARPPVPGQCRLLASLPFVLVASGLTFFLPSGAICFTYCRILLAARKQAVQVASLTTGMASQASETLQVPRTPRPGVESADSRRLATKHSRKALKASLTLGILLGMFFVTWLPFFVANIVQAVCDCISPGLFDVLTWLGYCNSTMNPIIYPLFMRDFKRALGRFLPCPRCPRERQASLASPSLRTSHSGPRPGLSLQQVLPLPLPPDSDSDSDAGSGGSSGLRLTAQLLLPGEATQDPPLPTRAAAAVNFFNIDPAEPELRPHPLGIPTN

Target: 5-hydroxytryptamine receptor 6 (Homo sapiens, UniProt P50406)

Ki: 1.82 nM
Compound: COc1ccc(NS(=O)(=O)c2ccc(I)cc2)cc1N1CCN(C)CC1 [SB-258585]
